Measurements as given in article PMC9008698.
These are yes or no findings as the source states them, for the method shown. Binding seen in cells or lysates may run through a third protein. Some entries that bind do so weakly or less than the wild type.

Amino acid sequences for entries named in this document (tags omitted).
UniProt P51617: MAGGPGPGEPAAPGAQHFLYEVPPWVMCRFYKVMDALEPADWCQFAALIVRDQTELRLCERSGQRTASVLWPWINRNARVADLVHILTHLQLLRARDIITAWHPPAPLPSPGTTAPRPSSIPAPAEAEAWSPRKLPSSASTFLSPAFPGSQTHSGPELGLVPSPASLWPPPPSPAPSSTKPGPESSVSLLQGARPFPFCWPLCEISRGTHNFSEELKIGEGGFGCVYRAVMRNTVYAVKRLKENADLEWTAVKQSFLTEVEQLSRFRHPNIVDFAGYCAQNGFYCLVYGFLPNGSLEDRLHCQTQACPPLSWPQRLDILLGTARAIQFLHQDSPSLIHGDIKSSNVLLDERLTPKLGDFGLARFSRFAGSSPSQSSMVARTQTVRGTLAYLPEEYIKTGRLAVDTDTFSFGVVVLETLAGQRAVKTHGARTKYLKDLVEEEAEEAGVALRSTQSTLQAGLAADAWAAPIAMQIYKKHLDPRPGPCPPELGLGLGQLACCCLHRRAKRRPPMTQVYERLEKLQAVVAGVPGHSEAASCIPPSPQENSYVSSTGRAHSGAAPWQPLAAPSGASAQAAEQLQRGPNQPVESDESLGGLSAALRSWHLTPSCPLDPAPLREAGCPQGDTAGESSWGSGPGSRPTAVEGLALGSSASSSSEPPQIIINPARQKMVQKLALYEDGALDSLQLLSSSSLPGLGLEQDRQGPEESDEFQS

What was measured:
Experiment in all cases: co-IP; HEK293T cells co-transfected with both partners; lysis in 0.5% Triton X-100, 20 mM Tris-HCl pH 7.5, 150 mM NaCl, 10% glycerol, 1 mM EDTA; anti-Flag agarose or anti-HA magnetic beads 4 h at 4°C; washes with 300 mM NaCl; immunoblotting
[1] = molecular target: T1, TRAF2-N (N-terminal zinc-binding domain; residues 1–271) (UniProt Q12933)
T1 sequence: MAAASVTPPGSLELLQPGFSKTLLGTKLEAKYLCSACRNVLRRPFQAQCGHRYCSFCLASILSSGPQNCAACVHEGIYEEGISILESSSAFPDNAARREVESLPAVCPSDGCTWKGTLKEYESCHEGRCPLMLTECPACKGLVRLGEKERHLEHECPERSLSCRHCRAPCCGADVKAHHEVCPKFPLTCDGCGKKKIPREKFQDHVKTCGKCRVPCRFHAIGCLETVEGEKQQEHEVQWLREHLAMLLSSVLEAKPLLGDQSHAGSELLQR

IKKβ = molecular target: T2, IKKβ (UniProt O14920)
T2 sequence: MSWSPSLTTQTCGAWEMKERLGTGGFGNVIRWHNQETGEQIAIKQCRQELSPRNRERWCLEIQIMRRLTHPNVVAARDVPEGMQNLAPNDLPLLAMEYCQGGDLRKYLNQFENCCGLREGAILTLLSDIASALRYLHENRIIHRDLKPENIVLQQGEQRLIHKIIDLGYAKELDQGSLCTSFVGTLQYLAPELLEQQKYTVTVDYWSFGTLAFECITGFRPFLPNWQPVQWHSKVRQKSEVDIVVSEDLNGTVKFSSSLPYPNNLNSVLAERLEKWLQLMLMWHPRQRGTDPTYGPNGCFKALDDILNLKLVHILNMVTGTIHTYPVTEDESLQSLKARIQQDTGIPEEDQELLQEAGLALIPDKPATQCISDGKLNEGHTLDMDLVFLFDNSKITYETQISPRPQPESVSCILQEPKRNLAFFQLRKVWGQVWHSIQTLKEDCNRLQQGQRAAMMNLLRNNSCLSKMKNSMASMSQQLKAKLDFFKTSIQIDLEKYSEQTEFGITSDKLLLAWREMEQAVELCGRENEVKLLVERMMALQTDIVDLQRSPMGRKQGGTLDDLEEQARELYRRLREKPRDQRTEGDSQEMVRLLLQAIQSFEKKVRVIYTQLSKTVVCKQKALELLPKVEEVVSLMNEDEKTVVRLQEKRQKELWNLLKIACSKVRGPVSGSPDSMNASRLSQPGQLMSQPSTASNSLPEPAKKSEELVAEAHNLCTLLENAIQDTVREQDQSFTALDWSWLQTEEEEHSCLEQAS

TAB1 = molecular target: T3, TAB1 (UniProt Q15750)
T3 sequence: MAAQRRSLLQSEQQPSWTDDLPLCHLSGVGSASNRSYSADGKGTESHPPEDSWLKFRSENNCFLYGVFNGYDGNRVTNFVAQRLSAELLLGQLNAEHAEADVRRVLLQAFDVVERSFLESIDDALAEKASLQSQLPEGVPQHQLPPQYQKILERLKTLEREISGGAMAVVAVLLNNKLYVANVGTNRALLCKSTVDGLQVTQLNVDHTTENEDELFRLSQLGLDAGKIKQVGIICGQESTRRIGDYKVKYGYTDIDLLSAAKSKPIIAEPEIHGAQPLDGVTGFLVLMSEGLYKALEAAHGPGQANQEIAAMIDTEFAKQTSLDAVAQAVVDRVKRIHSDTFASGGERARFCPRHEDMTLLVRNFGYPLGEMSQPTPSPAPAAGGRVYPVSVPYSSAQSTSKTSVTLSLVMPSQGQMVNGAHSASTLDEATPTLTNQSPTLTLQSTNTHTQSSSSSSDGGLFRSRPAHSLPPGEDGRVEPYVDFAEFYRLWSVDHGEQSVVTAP

IRAK1 (overexpressed) = IRAK1 (overexpressed) (UniProt P51617)
TAB2 = molecular target: T4, TAB2 (UniProt Q9NYJ8)
T4 sequence: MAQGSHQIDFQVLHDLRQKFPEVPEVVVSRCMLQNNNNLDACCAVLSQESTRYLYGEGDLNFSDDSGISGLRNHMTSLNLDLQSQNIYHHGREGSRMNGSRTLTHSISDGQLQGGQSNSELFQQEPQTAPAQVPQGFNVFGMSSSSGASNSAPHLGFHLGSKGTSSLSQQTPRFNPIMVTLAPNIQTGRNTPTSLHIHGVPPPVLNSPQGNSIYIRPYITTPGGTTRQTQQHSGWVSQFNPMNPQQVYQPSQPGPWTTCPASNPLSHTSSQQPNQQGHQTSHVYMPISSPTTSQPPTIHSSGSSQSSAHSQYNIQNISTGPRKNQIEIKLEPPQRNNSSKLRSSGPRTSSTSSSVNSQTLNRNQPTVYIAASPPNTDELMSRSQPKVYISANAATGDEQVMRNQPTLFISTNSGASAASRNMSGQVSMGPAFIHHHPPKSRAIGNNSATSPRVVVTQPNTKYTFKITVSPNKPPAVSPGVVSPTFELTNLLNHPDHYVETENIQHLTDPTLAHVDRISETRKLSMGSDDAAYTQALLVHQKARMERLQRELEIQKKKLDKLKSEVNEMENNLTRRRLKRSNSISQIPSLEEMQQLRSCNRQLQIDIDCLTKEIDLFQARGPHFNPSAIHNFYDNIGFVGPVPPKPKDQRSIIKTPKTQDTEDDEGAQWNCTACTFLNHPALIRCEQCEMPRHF

- binding [1]: binds
- binding (IKKβ): no binding
- binding (TAB1): no binding
- binding (IRAK1 (overexpressed)): no binding
- binding (TAB2): no binding
B1: KIZ (full length, co-transfected in HEK293T) (protein, UniProt Q2M2Z5 1-673)
chain: MSRTLASAVPLSSPDYYERLGQLQHGLRDSEKKRLDLEKKLYEYNQSDTCRVKLKYVKLKNYLKEICESEKKAHTRNQEYLKRFERVQAHVVHFTTNTEKLQKLKLEYETQIKKMLCSKDSLGLKEELTDEDREKVAVHEGINSGTAMSRGLYQPATIFMGRQMSAILSMRDFSTEHKSPQPTKNFSIPDPHSHRQTAQSSNVTDSCVVQTSNDTQCLNKSDNIDGKASLQIGEKMPVTASVLSEEEQTHCLEIGSNTRHGKSNLSEGKKSAELNSPLRERLSPENRTTDLKCDSSSGSEGEILTREHIEVEEKRASPPVSPIPVSEYCESENKWSQEKHSPWEGVSDHLAHREPKSQKPFRKMQEEEEESWSTSSDLTISISEDDLILESPEPQPNPGGKMEGEDGIEALKLIHAEQERVALSTEKNCILQTLSSPDSEKESSTNAPTREPGQTPDSDVPRAQVGQHVATLKEHDNSVKEEATALLRKALTEECGRRSAIHSSESSCSLPSILNDNSGIKEAKPAVWLNSVPTREQEVSSGCGDKSKKENVAADIPITETEAYQLLKKATLQDNTNQTENRFQKTDASVSHLSGLNIGSGAFETKTANKIASEASFSSSEGSPLSRHENKKKPVINLKSNALWDESDDSNSEIEAALRPRNHNTDDSDDFYD
